Test results reported in PMC7819943, “Rice protein-binding microarrays: a tool to detect cis-acting elements near promoter regions in rice”.
Some of the results follow.

Chains of the proteins cited; added tags and fusions are not shown.
UniProt Q0JBA9, entry or part of it: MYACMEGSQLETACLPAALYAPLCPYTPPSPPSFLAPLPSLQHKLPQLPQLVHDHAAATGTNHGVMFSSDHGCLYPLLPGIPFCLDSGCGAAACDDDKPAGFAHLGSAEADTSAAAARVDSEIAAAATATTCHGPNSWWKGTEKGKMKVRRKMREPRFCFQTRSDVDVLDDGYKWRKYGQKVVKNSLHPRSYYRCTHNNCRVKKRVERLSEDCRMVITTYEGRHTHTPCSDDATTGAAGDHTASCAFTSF

biological target: OsWRKY34 (Oryza sativa, UniProt Q0JBA9 1-250); test: protein-binding microarray (RPBM); PBS, 2% BSA, 51.3 ng/ul salmon testes DNA, 50 uM zinc acetate, 200 nM TF, 25 C, 1 h; high values mean tight binding; settings: protein: recombinant; tags: N-terminal polyhistidine and DsRed monomer fusion (pET32a); label: CyDye5-dUTP incorporated in the synthesized complementary strand; 3' TTTTT single-stranded linker to array surface; dsDNA, one strand shown
Summary of the method: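 Binding signal is reported as fluorescence intensity per feature (arbitrary units) from an Axon 4000B scanner. Incubation used 200 nM of each Ni–NTA-purified, N-terminally polyhistidine- and DsRed-fused transcription factor from E. coli BL21-CodonPlus on a double-stranded custom Agilent array for 1 h at 25 °C, with 50 µM zinc acetate in the buffer, followed by washing.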

**Q.** Which binding signal does the source give for “TATCCTTCTTATTTGCGTCCCTACAAATTTACTCTGACAACGGAGTCACCTAGTGCAG” here?
**A.** 12900 fluorescence intensity (a.u.)

**Q.** How did the binding signal turn out when “GTCTGGCTATCTTCGGTTCCTCGTCTATTGGTCTATTTGACGGAGTCACCTAGTGCAG” was run?
**A.** 10600 fluorescence intensity (a.u.)

**Q.** With “CGTCTACCAACCACTGTGCTGTCGCCATCGTCCAGCCGCTCGGAGTCACCTAGTGCAG” as the sequence, how does the binding signal read?
**A.** 10100 fluorescence intensity (a.u.)

**Q.** For “GAGAAAACAAGTGCCAAGTGTTTCCACTTACCCATTCTACCGGAGTCACCTAGTGCAG”, which binding signal is on record?
**A.** 8680 fluorescence intensity (a.u.)

**Q.** How did the binding signal turn out when “GGTAAAATAGACTTATTCCTCTACTTTTATCATGACTTGCCGGAGTCACCTAGTGCAG” was run?
**A.** 9520 fluorescence intensity (a.u.)

**Q.** Which binding signal does the source give for “GGGGCACAGGCCACCTCGCCCAAATTGCGTCGCTGCCGTCCGGAGTCACCTAGTGCAG” here?
**A.** 8990 fluorescence intensity (a.u.)

**Q.** Which binding signal does the source give for “GGCCTGTGTGGAGTTAAGTATATTTAAGGTTAGGGGCAGTCGGAGTCACCTAGTGCAG” here?
**A.** 8670 fluorescence intensity (a.u.)

**Q.** Which binding signal does the source give for “ATAGTGTTTAATTACAAATTGTCTGTCATCCCTGTCTGAACGGAGTCACCTAGTGCAG” here?
**A.** 10500 fluorescence intensity (a.u.)

**Q.** Which binding signal does the source give for “ATCACATCAAAATTTTCCTACACACGTAAACTTCCGTCACCGGAGTCACCTAGTGCAG” here?
**A.** 13900 fluorescence intensity (a.u.)

**Q.** Which binding signal does the source give for “CGTCACCCGAGCAGCGTTTCGCTTGTACCCGCCCGGCGCACGGAGTCACCTAGTGCAG” here?
**A.** 8850 fluorescence intensity (a.u.)

**Q.** How did the binding signal turn out when “TATCTGATGATGTGGGAGGTTCTAAAGGCAGTGCCGCTAGCGGAGTCACCTAGTGCAG” was run?
**A.** 8410 fluorescence intensity (a.u.)

**Q.** How did the binding signal turn out when “CACTGCTTGCCTTGGTCTCACTCTAGTCAACGCGCCCACGCGGAGTCACCTAGTGCAG” was run?
**A.** 9950 fluorescence intensity (a.u.)

**Q.** Which binding signal does the source give for “ACACATGCACTCCTTGACATTAGGCTATATACACATTTCTCGGAGTCACCTAGTGCAG” here?
**A.** 11600 fluorescence intensity (a.u.)

**Q.** With “GTTTATAGGTTGCTATTGTACCTGCTCTTACTCTAGTGCTCGGAGTCACCTAGTGCAG” as the sequence, how does the binding signal read?
**A.** 8390 fluorescence intensity (a.u.)

**Q.** “TTTAAGTCGGTTGATTCGGATACGGTTGGTTAGTTCCGTTCGGAGTCACCTAGTGCAG” was tested. Which binding signal did it give?
**A.** 10100 fluorescence intensity (a.u.)

**Q.** With “GGGGTGTTAGTTAATTGCATGTATCCGTACGTGACTTGTACGGAGTCACCTAGTGCAG” as the sequence, how does the binding signal read?
**A.** 14400 fluorescence intensity (a.u.)

**Q.** With “GCGGGCTTCAAAACAACTTTTCTCATAAACTAATTATCCACGGAGTCACCTAGTGCAG” as the sequence, how does the binding signal read?
**A.** 8540 fluorescence intensity (a.u.)

**Q.** Which binding signal does the source give for “TAGTATAACTTACATCATTTCTCATCCTCCTATTACTATTCGGAGTCACCTAGTGCAG” here?
**A.** 8840 fluorescence intensity (a.u.)

**Q.** For “GAGCTACAACCCGGTAATTAGCATTATCATTTATATTTACCGGAGTCACCTAGTGCAG”, which binding signal is on record?
**A.** 8440 fluorescence intensity (a.u.)

**Q.** How did the binding signal turn out when “CAATTGGCGCCATATTTTGGAGTGAGCATATCAACCTCTCCGGAGTCACCTAGTGCAG” was run?
**A.** 8460 fluorescence intensity (a.u.)

**Q.** How did the binding signal turn out when “TTGATCCTTTTTCGCCGCTCACGCCGAGCTGCCCCGACAACGGAGTCACCTAGTGCAG” was run?
**A.** 8340 fluorescence intensity (a.u.)

**Q.** With “CCTTATACTGTCTCACTTGTCTCACACTGAAACCGTTTTCCGGAGTCACCTAGTGCAG” as the sequence, how does the binding signal read?
**A.** 8410 fluorescence intensity (a.u.)

**Q.** How did the binding signal turn out when “TTATAACACCAGTCGTTTTCTACAACTTTGTTGTTTTTTCCGGAGTCACCTAGTGCAG” was run?
**A.** 10100 fluorescence intensity (a.u.)

**Q.** “CATCTTTGATCTCATCCTGTTCCAGCTCCTAGTGCACCACCGGAGTCACCTAGTGCAG” was tested. Which binding signal did it give?
**A.** 9330 fluorescence intensity (a.u.)

**Q.** For “CACATTTTTCGGCATCCCACCAACCCGTCGACCCCGGCATCGGAGTCACCTAGTGCAG”, which binding signal is on record?
**A.** 8390 fluorescence intensity (a.u.)

**Q.** For “AGCAGTATCTAGTTCTGCCTTGTTCTTGCTCCTTATATAACGGAGTCACCTAGTGCAG”, which binding signal is on record?
**A.** 8350 fluorescence intensity (a.u.)

**Q.** Which binding signal does the source give for “GCTCCCGTCGCCGTCCGTACCCCGGCTCCCGGCGACCGCCCGGAGTCACCTAGTGCAG” here?
**A.** 9940 fluorescence intensity (a.u.)

**Q.** “ACAATATCTTCTAACTTAACCTGTTGCGGCTTGTTTGTTACGGAGTCACCTAGTGCAG” was tested. Which binding signal did it give?
**A.** 10300 fluorescence intensity (a.u.)

**Q.** Which binding signal does the source give for “TGTGACCACATCATCTGCACAGCTCAAGTCTCCATTACTACGGAGTCACCTAGTGCAG” here?
**A.** 8480 fluorescence intensity (a.u.)

**Q.** For “CCGCAACCACAATTGGCTACATTTCACAATCACCTTTTTGCGGAGTCACCTAGTGCAG”, which binding signal is on record?
**A.** 9370 fluorescence intensity (a.u.)

**Q.** With “GGCGGTGGATGGTGGTGCGGCGGCAGGAAGGGCGGGAGCGCGGAGTCACCTAGTGCAG” as the sequence, how does the binding signal read?
**A.** 10200 fluorescence intensity (a.u.)

**Q.** “TCCCGTACGCCTCTACTACCTCTTTTACCTGCGTGCCTTCCGGAGTCACCTAGTGCAG” was tested. Which binding signal did it give?
**A.** 11100 fluorescence intensity (a.u.)

**Q.** With “CTTCTCCTTGGATGCCTCGGCTTCCTCACCACATGCCCCGCGGAGTCACCTAGTGCAG” as the sequence, how does the binding signal read?
**A.** 10000 fluorescence intensity (a.u.)

**Q.** “GTCGGTTTACAGTAGTGGGCCTTTGTCGATTCAGACCGGGCGGAGTCACCTAGTGCAG” was tested. Which binding signal did it give?
**A.** 8670 fluorescence intensity (a.u.)

**Q.** “CGTTCTGTCTTGATTATCTGTTCGTTCTTGATTATCCATTCGGAGTCACCTAGTGCAG” was tested. Which binding signal did it give?
**A.** 13200 fluorescence intensity (a.u.)

**Q.** “AAAGCTCAACATTTCGGCCTTCTTATTTTGACTTTTTGGCCGGAGTCACCTAGTGCAG” was tested. Which binding signal did it give?
**A.** 12300 fluorescence intensity (a.u.)

**Q.** With “GAGGTGTAATTTTAGCTTTTTTATTTGTGACGTACTCCATCGGAGTCACCTAGTGCAG” as the sequence, how does the binding signal read?
**A.** 8620 fluorescence intensity (a.u.)

**Q.** “CCACACACCATTGCCGCATCATCCACCACCGCCTCCTCAGCGGAGTCACCTAGTGCAG” was tested. Which binding signal did it give?
**A.** 8990 fluorescence intensity (a.u.)

**Q.** With “TGGTTTCCGTGTCCAATGTTTGACCGTCCGTCTTATTTGACGGAGTCACCTAGTGCAG” as the sequence, how does the binding signal read?
**A.** 11000 fluorescence intensity (a.u.)

**Q.** With “TTTCAAAATATTTGACACCGTTGACTTTTTAACACATGTTCGGAGTCACCTAGTGCAG” as the sequence, how does the binding signal read?
**A.** 17900 fluorescence intensity (a.u.)

**Q.** Which binding signal does the source give for “GCGCTTTTGTCTTGGTCATTGATCATTTCCACGATGAGATCGGAGTCACCTAGTGCAG” here?
**A.** 13000 fluorescence intensity (a.u.)

**Q.** How did the binding signal turn out when “TCATCCGGTGCCTGTTGTCTCTTTCTTCTCTCTCACATACCGGAGTCACCTAGTGCAG” was run?
**A.** 16600 fluorescence intensity (a.u.)
